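Human melanoma cells were exposed to a pair of drugs for 72 h in 1,536-well plates and read by automated microscopy after fixing and staining. The read-out is cell count (nuclei) in % of the DMSO control; lower values mean stronger growth inhibition or killing. Every drug was used at one fixed concentration, the higher of two screened. The file gives one value for each pair and line, without errors, so small differences may be noise.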 This is part of the screen, not chosen by result. A dash means that no value is listed here.

Drugs:
KU-55933, 5 µM: O=c1cc(-c2cccc3c2Sc2ccccc2S3)oc(N2CCOCC2)c1
PD173074, 0.5 µM: CCN(CC)CCCCNc1ncc2cc(-c3cc(OC)cc(OC)c3)c(NC(=O)NC(C)(C)C)nc2n1
dasatinib, 0.02 µM: Cc1nc(Nc2ncc(C(=O)Nc3c(C)cccc3Cl)s2)cc(N2CCN(CCO)CC2)n1
VX-702, 2 µM: NC(=O)c1ccc(N(C(N)=O)c2c(F)cccc2F)nc1-c1ccc(F)cc1F
nilotinib, 1 µM: Cc1cn(-c2cc(NC(=O)c3ccc(C)c(Nc4nccc(-c5cccnc5)n4)c3)cc(C(F)(F)F)c2)cn1
AZD7762, 0.1 µM: NC(=O)Nc1cc(-c2cccc(F)c2)sc1C(=O)N[C@H]1CCCNC1
U73122, 2 µM: COc1ccc2c(c1)CCC1C2CCC2(C)C(NCCCCCCN3C(=O)C=CC3=O)CCC12 (stereo not given)
BI-78D3, 1 µM: O=c1[nH]nc(Sc2ncc([N+](=O)[O-])s2)n1-c1ccc2c(c1)OCCO2
tamatinib, 2 µM: COc1cc(Nc2ncc(F)c(Nc3ccc4c(n3)NC(=O)C(C)(C)O4)n2)cc(OC)c1OC
pioglitazone, 10 µM: CCc1ccc(CCOc2ccc(CC3SC(=O)NC3=O)cc2)nc1 (stereo not given)
OSI-906, 2 µM: C[C@]1(O)C[C@@H](c2nc(-c3ccc4ccc(-c5ccccc5)nc4c3)c3c(N)nccn32)C1
TCS401, 8.33 µM: O=C(O)C(=O)Nc1sc2c(c1C(=O)O)CCNC2

| Pair | COLO 800 | C32 | WM451Lu |
|---|---|---|---|
| KU-55933 + tamatinib | 64.2 | 102 | - |
| BI-78D3 + TCS401 | 66.6 | 72.3 | - |
| OSI-906 + AZD7762 | 37.6 | 59.3 | - |
| TCS401 + VX-702 | 115 | 94.5 | - |
| TCS401 + pioglitazone | 77.8 | 106 | 94.8 |
| nilotinib + TCS401 | 111 | 93.1 | - |
| VX-702 + pioglitazone | 116 | 99.0 | - |
| BI-78D3 + PD173074 | 132 | 94.1 | - |
| TCS401 + AZD7762 | 56.2 | 62.7 | - |
| U73122 + tamatinib | 57.9 | 73.8 | - |
| BI-78D3 + U73122 | 62.6 | 83.1 | - |
| OSI-906 + nilotinib | 42.5 | 81.8 | - |
| U73122 + nilotinib | 84.4 | 58.6 | 94.1 |
| OSI-906 + TCS401 | 48.4 | 91.0 | - |
| AZD7762 + PD173074 | 50.9 | 53.2 | - |
| dasatinib + TCS401 | 58.0 | 56.9 | - |
| tamatinib + OSI-906 | 21.3 | 69.2 | - |
| VX-702 + tamatinib | 39.1 | 84.9 | - |
| BI-78D3 + pioglitazone | 76.9 | 79.5 | - |
| KU-55933 + OSI-906 | 63.2 | 92.6 | - |
| U73122 + OSI-906 | 33.3 | 70.3 | - |
| PD173074 + pioglitazone | 119 | 103 | - |
| BI-78D3 + KU-55933 | 108 | 87.1 | - |
| KU-55933 + dasatinib | 66.8 | 79.6 | - |
| pioglitazone + OSI-906 | 43.6 | 87.2 | - |
| AZD7762 + VX-702 | 52.8 | 75.9 | - |
| dasatinib + pioglitazone | 58.7 | 66.2 | - |
| KU-55933 + pioglitazone | 74.0 | 110 | - |

Repeated from the top, 3 entries:

Pair,COLO 800,C32,WM451Lu
KU-55933 + tamatinib,64.2,102,-
BI-78D3 + TCS401,66.6,72.3,-
OSI-906 + AZD7762,37.6,59.3,-

Values as published with doi:10.1371/journal.pone.0140310, rounded.